Primary screen of a compound library

By UniProt entry, the sequences of proteins in these tests, tags left out.
UniProt E9BF75, entry or part of it: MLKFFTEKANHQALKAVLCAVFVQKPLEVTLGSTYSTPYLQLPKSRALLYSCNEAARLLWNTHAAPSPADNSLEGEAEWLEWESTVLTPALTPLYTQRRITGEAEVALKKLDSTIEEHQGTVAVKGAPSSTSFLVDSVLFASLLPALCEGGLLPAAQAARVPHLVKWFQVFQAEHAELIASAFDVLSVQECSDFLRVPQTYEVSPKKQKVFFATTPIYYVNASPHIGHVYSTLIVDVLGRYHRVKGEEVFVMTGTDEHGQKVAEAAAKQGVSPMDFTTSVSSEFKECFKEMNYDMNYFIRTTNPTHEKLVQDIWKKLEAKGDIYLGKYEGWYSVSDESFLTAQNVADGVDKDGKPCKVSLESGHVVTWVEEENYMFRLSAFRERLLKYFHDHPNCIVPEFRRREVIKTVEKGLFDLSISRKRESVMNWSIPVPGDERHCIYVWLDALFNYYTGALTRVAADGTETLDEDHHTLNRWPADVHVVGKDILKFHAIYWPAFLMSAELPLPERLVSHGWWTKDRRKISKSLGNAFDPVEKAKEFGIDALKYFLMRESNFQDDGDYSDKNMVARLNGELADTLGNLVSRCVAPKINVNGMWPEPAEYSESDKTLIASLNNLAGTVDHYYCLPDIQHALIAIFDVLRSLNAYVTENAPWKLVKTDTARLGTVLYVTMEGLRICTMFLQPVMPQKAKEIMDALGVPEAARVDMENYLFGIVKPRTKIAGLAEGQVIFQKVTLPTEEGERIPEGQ

Measurements from “University of Dundee, Small-Polar-MMV Screening Library” (2021), ChEMBL document CHEMBL3988442.

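Methionyl-tRNA synthetase (putative), Leishmania donovani (UniProt E9BF75). Primary screen of methionyl-tRNA synthetase; the read-out is not stated. The test concentration is not given. Values are per cent inhibition. Of about 68,000 compounds tested this way, about 24 (0.035%) reached 50% or more in at least one test.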

Results are percentages, as filed.
How 0% and 100% were set is not recorded. Most values in the screen are low, and negative values occur.
Compounds were drawn at random from those tested, without regard to their results.

{"compound": "CSc1ccc(Cl)c(C(=O)N2CCCC(CNS(C)(=O)=O)C2)c1", "stereo": "configuration not stated", "inhibition": -0.3484}
{"compound": "COC[C@@H]1CCC[C@@]12CN(C(=O)C1CCOCC1)CCO2", "inhibition": 11.14}
{"compound": "CCC(C)(C)n1nnnc1C(c1cccs1)N1CCc2ccccc2C1", "stereo": "configuration not stated", "inhibition": 16.67}
{"compound": "CC(C)C[C@H](NCc1cc(O)c2cccc(F)c2n1)C(N)=O", "inhibition": 11.11}
{"compound": "CCc1nnc2n1CC(CNCc1nnc(C(C)(C)C)o1)CC2", "stereo": "configuration not stated", "inhibition": 8.871}
{"compound": "c1cnc(NCc2noc3c2CN(C2CCOCC2)CC3)nc1", "inhibition": 13.81}
{"compound": "Cc1ccc2c(c1)C1(CC2)CCN(CC(=O)O)CC1", "inhibition": 11.85}
{"compound": "CCn1nc(C)c2ccn(CC(=O)NCCCOC)c(=O)c21", "inhibition": 16.28}
{"compound": "Cc1ccc(NCc2ccc(C#N)cc2)c(CN(C)C)c1", "inhibition": 0.4963}
{"compound": "C1CCN(c2nc(N3CCOCC3)nc3[nH]nnc23)CC1", "inhibition": 13.19}
{"compound": "CN1Cc2ccccc2CC1C(=O)N1CCN(CCS(C)(=O)=O)CC1", "stereo": "configuration not stated", "inhibition": 2.29}
{"compound": "Nc1nnnn1NCc1cccc(Cl)c1Cl", "inhibition": 0.8499}
{"compound": "Cc1nc(CN2CCC(N3CCN(C)C3=O)CC2)no1", "inhibition": 9.296}
{"compound": "COCC(c1ccccn1)N(C)C(=O)c1cc(-c2ccccc2O)n[nH]1", "stereo": "configuration not stated", "inhibition": 12.1}
{"compound": "Cc1c(C(=O)N(C)c2ccccc2)cccc1N(C)S(C)(=O)=O", "inhibition": 4.444}
{"compound": "O=C(NCCN1CCOCC1)c1n[nH]c(=O)c2ccccc12", "inhibition": 10.93}
{"compound": "Cc1nn(C)c2nc(N3CCNC(=O)C3Cc3ccccc3)sc12", "stereo": "configuration not stated", "inhibition": 15.32}
{"compound": "CCCNC(=O)C[S+]([O-])Cc1csc(C2CCCCC2)n1", "stereo": "configuration not stated", "inhibition": 14.44}
{"compound": "O=C(c1csc(-c2ccco2)n1)N(CC1CCOC1)C1CC1", "stereo": "configuration not stated", "inhibition": 4.963}
{"compound": "Cc1cc2c(N3CCC(N(C)CCc4cnn(C)c4)CC3)ncnc2s1", "inhibition": 19.38}
{"compound": "COCc1cc(O)nc(C2CCCN(Cc3cc(OC)ccc3F)C2)n1", "stereo": "configuration not stated", "inhibition": 9.247}
{"compound": "COC(=O)[C@]12CNC[C@H]1CN(Cc1nc(C)c[nH]1)C2", "inhibition": 1.493}
{"compound": "Cn1cnc2c1C(COCC1CC1)CN(Cc1ccsc1)C2", "stereo": "configuration not stated", "inhibition": 12.75}
{"compound": "Cc1cc(C(=O)N2CCn3cc(CN4CCN(C)CC4)nc3C2)no1", "inhibition": 7.463}
{"compound": "O=C(NCC1CC1)C1CSCN1S(=O)(=O)c1ccccc1F", "stereo": "configuration not stated", "inhibition": 15.09}
{"compound": "CN1CC(C(=O)NCCc2ccc3c(c2)OCO3)CC1=O", "stereo": "configuration not stated", "inhibition": 17.34}
{"compound": "CN(C)Cc1nc2c(o1)CN(S(=O)(=O)c1cccs1)C2", "inhibition": 16.42}
{"compound": "CSCC(=O)N1C[C@H](c2ccc(C)o2)[C@@H](N)C1", "inhibition": 11.91}
{"compound": "Cc1nc(C2CCCN2C(=O)CCn2cncn2)no1", "stereo": "configuration not stated", "inhibition": 22.16}
{"compound": "O=S(=O)(C1CC1)N1C[C@@H]2CN(Cc3cccs3)CCO[C@@H]2C1", "inhibition": 1.449}
{"compound": "COc1c(C(=O)NCC(C)Sc2ccccc2)c(C)nn1C", "stereo": "configuration not stated", "inhibition": 5.974}
{"compound": "Cc1cc(C)cc(CCC(=O)NC(C)c2nnn[nH]2)c1", "stereo": "configuration not stated", "inhibition": 10.06}
{"compound": "Cc1ccc(Oc2ncccc2CNC(=O)NC2CCCCC2)cn1", "inhibition": 7.829}
{"compound": "COc1cc(N2CC3(CCN(c4ncccn4)C3)C2)ncn1", "inhibition": 9.22}
{"compound": "Cc1nc(CN2CCCN(Cc3nc4ccccc4o3)CC2)no1", "inhibition": 1.083}
{"compound": "CCOc1ncccc1NC(=O)c1cc(C)c(C)s1", "inhibition": 17.7}
{"compound": "CN(C)CCN1C[C@@H]2CN(C(=O)c3ccsc3)C[C@@H]2C1=O", "inhibition": 5.512}
{"compound": "CCN1CCN(S(=O)(=O)c2ncn(C)c2Cl)CC1", "inhibition": 12.39}
{"compound": "O=C(c1cc(Cl)ccc1OC1CCN(C2CCCC2)CC1)N1CC(O)C1", "inhibition": 7.532}
{"compound": "CN(C)CCO[C@@H]1CC[C@H]2[C@H]1OCCN2C(=O)CCc1ccccc1", "inhibition": 14.64}
{"compound": "CO[C@H]1CN(C(=O)OC(C)(C)C)CC1NCc1ccco1", "stereo": "some centres not stated", "inhibition": 11.21}
{"compound": "CCOC(=O)c1ccccc1NC(=O)CN(C)Cc1ccccc1Cl", "inhibition": 8.696}
{"compound": "CC(NC(=O)N1CCC(CC(N)=O)CC1)c1csc2ccccc12", "stereo": "configuration not stated", "inhibition": 15.79}
{"compound": "O=C(NCCN1CCCC1)c1nc2c(o1)CN(c1ncccn1)C2", "inhibition": 6.159}
{"compound": "O=C(Cc1cccnc1)NC1COc2ccccc2C1=O", "stereo": "configuration not stated", "inhibition": 14.49}

For reference, 4 entries once more:

{"compound": "CCOc1ncccc1NC(=O)c1cc(C)c(C)s1", "inhibition": 17.7}
{"compound": "Cc1nc(CN2CCC(N3CCN(C)C3=O)CC2)no1", "inhibition": 9.296}
{"compound": "CSCC(=O)N1C[C@H](c2ccc(C)o2)[C@@H](N)C1", "inhibition": 11.91}
{"compound": "O=C(Cc1cccnc1)NC1COc2ccccc2C1=O", "stereo": "configuration not stated", "inhibition": 14.49}